Results on 64 compounds are retold here after PubChem BioAssay AID2685 (National Center for Advancing Translational Sciences (NCATS), 2010).

The nature of this test: qHTS Assay for Lipid Storage Modulators in Drosophila S3 Cells.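 On cell number change: cells counted by Cell Tracker Red CMTPX staining in the red channel.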 The conditions noted are these: BODIPY lipid droplet fluorescence, 18-24 h; for cell number change: measured here: cell count max response, cells fed with added oleic acid. Summed up: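 Laser-scanning cytometry quantifies lipid droplet accumulation (500–530 nm total intensity; droplet/cell object ratio) in oleic acid-fed (400 uM added) Drosophila S3 cells treated with a concentration series. 20 uM Triacsin C defined 100% inhibition.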
Background: In qHTS, concentration-response curves come from the screen itself.

Setting [1] is: measured here: cell number channel AC50, cells fed with added oleic acid.
Where [2] appears, read: measured here: lipid fluorescence (Fed channel) AC50, cells fed with added oleic acid.

The other results are listed elsewhere or left out. Shown are side measurements of this screen, not its main read-out; they come without a call. Most of these compounds were active or inconclusive in the main read-out, so they are no random draw. The note in brackets gives the kind of curve behind each potency; many fits are weak.

The term AC50 denotes the concentration giving half of the maximal activity seen. Lower therefore signals greater potency.

As for `Cc1ccc(Cl)cc1N1CCN(C(=O)CN2C(=O)c3cccc4cccc2c34)CC1`, the half-maximal activity concentration (AC50) reads like this: under setting [1], 2.59 µM [rising, partial curve]; under setting [2], 4.11 µM [rising, partial curve].
On to `Cc1ccc(-n2nc(-c3ccc(OC(F)(F)F)cc3)cc2N)cc1C`, for which the cell number change amounted to 11.6%.
For the compound `CCOC(=O)c1cn(Cc2cccc(Cl)c2)nn1`, the cell number change was found to be 0.115%. The AC50 under setting [2] is 9.2 µM [rising, partial curve].
For the compound `Cc1cc(Cl)ccc1OC(C)c1nnc(N)s1` (stereo not drawn), the AC50 under setting [1] was 0.651 µM [rising, single point] and the concentration at half-maximal activity (AC50) under setting [2] was 0.651 µM [rising, single point].
Regarding `CC(C)=C1SC(N2CCN(c3ccc(Cl)cc3)CC2)=NC1=O`, the cell number change is 18.6%. The AC50 under setting [1] was 1.84 µM [rising, partial curve, poor fit]. Further, the AC50 under setting [2] is 1.84 µM [rising, partial curve, poor fit].
As for `NS(=O)(=O)c1ccc(CNC(=O)c2cc(-c3cccnc3)nc3ccc(Br)cc23)cc1`, the cell number change was -56.2%. Further, the half-maximal activity concentration (AC50) under setting [1] is 28.2 µM [falling, single point].
As to `COCC(=O)N1CCC(Oc2ccc(C(=O)N3C[C@H]4CC[C@H]3C4)cc2)CC1`, the cell number change is -26.7%.
For `O=C(C[n+]1cc(-c2ccc(F)cc2)n2c1CCC2)OCc1ccccc1`, the cell number change is 14.9%. Further, the concentration at half-maximal activity (AC50) under setting [2] is 2.91 µM [falling, full curve].
Take `CCCN1C(=O)/C(=C2\SC(N3CCCCC3)=NC2=O)c2ccccc21`: the cell number change was -94.4%. Also, the AC50 under setting [1] was 20.6 µM [falling, partial curve].
Consider `Cc1cc(C)c(S(=O)(=O)ON2C(=O)c3ccccc3C2=O)cc1C`, for which the cell number change was -28.3%. Under setting [2], the AC50 is 9.2 µM [falling, partial curve].
`CN(C)c1nc(OCCNC(=O)COc2ccc(Cl)cc2Cl)nc(N2CCOCC2)n1`: the cell number change was -14.5%. For the same compound, under setting [2], the AC50 is 16.4 µM [rising, single point].
`O=C(NCc1ccco1)c1cc2n(n1)C(C(F)(F)F)CC(c1ccc(Br)cc1)N2` (stereo not drawn): the cell number change is -44.9%. The AC50 under setting [1] was 2.06 µM [falling, partial curve, poor fit].
As for `Cc1c(/C=C2\SC(=Nc3cccc(C(=O)O)c3)NC2=O)c2ccccc2n1C`, the cell number change is -3.8%. Further, the AC50 under setting [2] is 29.1 µM [rising, single point].
Turning to `COc1ccc2cc(S(=O)(=O)Nc3ccccn3)ccc2c1`, the cell number change was 8.55%.
Take `COc1ccc(CN(C(=O)c2cnccn2)C(C(=O)Nc2ccc(F)cc2)c2ccccc2)cc1` (stereo not drawn): the cell number change is -21.4%. Under setting [2], the AC50 was 14.6 µM [falling, single point].
On to `CCN(CC)C(=O)CN1C(=O)C2(OCC(C)(c3ccccc3)CO2)c2ccccc21` (stereo not drawn), for which the cell number change is -3.17%.
For `Cc1cc(=O)n2nc(N3CCCC(C(=O)N4CCOCC4)C3)sc2n1` (stereo not drawn), the cell number change stood at 2.75%.
Regarding `COc1ccc([C@H]2CC(=O)C=C(c3ccc(OC)c(F)c3)C2)cc1`, the AC50 under setting [2] is 1.16 µM [falling, full curve].
On to `FC(F)(F)c1ccccc1CNCc1ccncc1`, for which the cell number change was -8.39%.
Take `Cc1ccc(C)c(NC(=O)COC(=O)CSc2ccccc2)c1`: the cell number change is -3.3%. Moreover, the AC50 under setting [2] is 0.517 µM [rising, single point].
Turning to `CN(C)CCCCCNCCCNC(=O)/C=N\O`, the cell number change is -7.5%. The AC50 under setting [2] was 0.058 µM [falling, full curve].
For `COc1ccc(Nc2nc(C)c3ccccc3n2)cc1`, the cell number change is -3.97%. Besides, under setting [2], the AC50 was 6.51 µM [rising, single point].
In the case of `O=C(O)COCC(=O)N1CCN(C(c2ccccc2)c2ccccc2)CC1`, the cell number change was -21.3%.
Take `CC(C)(C)C(=O)OCc1cn(-c2ccc(Cl)cc2)nn1`: the cell number change is 79%. Besides, the AC50 under setting [1] is 29.1 µM [rising, single point].
Consider `COc1ccc(N(C(=O)COc2ccccc2)C2C=CS(=O)(=O)C2)cc1` (stereo not drawn), for which the AC50 was 0.00461 µM [falling, full curve, poor fit] under setting [1] and 0.00461 µM [falling, full curve, poor fit] under setting [2].
In the case of `COc1ccccc1NS(=O)(=O)c1cc(NC(=O)CNC(=O)c2ccccc2)ccc1C`, the cell number change is -50%. For the same compound, under setting [1], the AC50 is 32.6 µM [falling, single point]. Moreover, the AC50 under setting [2] is 1.84 µM [rising, full curve].
Take `CCN(CC)S(=O)(=O)c1ccc(OC)c(NC(=O)CSc2cc(C)ccc2C)c1`: the cell number change was 29.8%. Besides, the AC50 under setting [2] was 2.31 µM [rising, partial curve].
For the compound `CCOC(=O)c1ccccc1NC(=O)c1cn(-c2ccc(OC)cc2)c(=O)c2ccccc12`, the cell number change came to 10%. Further, the half-maximal activity concentration (AC50) under setting [2] was 0.146 µM [rising, full curve, poor fit].
For `N/C(=N\OC(=O)c1ccc2c(c1)OCO2)c1ccncc1`, the cell number change turned out to be 32.5%. The AC50 under setting [1] is 4.11 µM [rising, partial curve, poor fit]. For the same compound, the half-maximal activity concentration (AC50) under setting [2] was 2.31 µM [rising, partial curve, poor fit].
As for `Cc1c(N=Cc2nc3ccccc3[nH]2)c(=O)n(-c2ccccc2)n1C`, the cell number change is -11.7%.
With `O=C(NCc1ccccc1Cl)C(=O)c1c[nH]c2ccccc12`, the cell number change was 9.24%. Moreover, under setting [1], the AC50 was 1.84 µM [falling, partial curve].
As to `O=C(COc1ccc(F)cc1)NNC(=O)c1cc2ccccc2oc1=O`, the cell number change amounted to 7.89%. In addition, under setting [2], the AC50 was 1.84 µM [rising, partial curve, poor fit].
Regarding `O=C(CNc1ccc(F)cc1)N/N=C1\CCc2ccccc21`, the cell number change was determined as 140%.
As for `O=C(COC(=O)c1cn(-c2ccccc2)nc1-c1ccccc1)c1ccc([N+](=O)[O-])cc1`, the cell number change is 1.32%. Further, under setting [2], the AC50 was 1.84 µM [rising, partial curve, poor fit].
Take `CCS(=O)(=O)N1CCN(c2ccc(C(=O)NC3C4CC5CC(C4)CC3C5)cc2[N+](=O)[O-])CC1` (stereo not drawn): the cell number change is -32.1%. In addition, the AC50 under setting [1] is 20.6 µM [falling, single point]. For the same compound, the AC50 under setting [2] was 20.6 µM [falling, single point].
With `COc1ccc(NC(=O)CCCCCN2C(=O)c3cccc([N+](=O)[O-])c3C2=O)c(OC)c1`, the cell number change is -13.2%.
Regarding `Cc1ccc(NC(=O)CSc2sc3c(O)cc(=O)[nH]c3c2C#N)cc1C`, the cell number change came out at 0.87%.
For the compound `COc1cccc(-c2nnc(SCC(=O)Nc3cc(C)ccc3OC)n2N)c1`, the cell number change is -18.7%. Moreover, the half-maximal activity concentration (AC50) under setting [2] was 0.82 µM [rising, full curve, poor fit].
In the case of `Nc1cc(-c2nn[nH]n2)ccc1F`, the cell number change is -6.69%.
`CC(C)(C)c1nc(NCCO)c2nnn(Cc3ccccc3)c2n1`: the cell number change is -31%. The AC50 under setting [1] is 16.4 µM [falling, single point]. In addition, under setting [2], the AC50 was 1.64 µM [falling, partial curve].
As for `Cn1c(=O)c2c(SCC(=O)Nc3ccccc3F)nc(-c3ccccc3F)nc2n(C)c1=O`, the cell number change is -16%. Under setting [2], the AC50 was 0.92 µM [falling, full curve].
For `Nc1nnnn1CC(=O)OCc1cccc(Br)c1`, the AC50 under setting [2] is 9.2 µM [falling, partial curve].
Turning to `O=C(/C=C/c1cc2c(cc1Br)OCO2)NCc1ccc(Cl)cc1`, the cell number change was -93.2%.
Take `COc1ccc(CCNC(=O)c2noc3c2CCCC3)cc1OC`: the cell number change was -5.48%. Also, the AC50 under setting [2] is 25.9 µM [rising, single point].
For the compound `COc1ccc(S(=O)(=O)NNC(=O)Cc2csc(C)n2)cc1[N+](=O)[O-]`, under setting [2], the concentration at half-maximal activity (AC50) is 0.82 µM [rising, partial curve].
Turning to `CC(C)n1c(O)c(N=NC(=O)CNC(=O)Cc2ccc(Cl)cc2)c2ccccc21`, the cell number change was 14.5%.
Regarding `O=C(c1ccc(OC2CCN(Cc3ccccc3C(F)(F)F)CC2)cc1)N1CCCCC1`, the cell number change was -3.76%. The AC50 under setting [2] was 0.00517 µM [falling, full curve, poor fit].
On to `O=C(NC1CCCCC1)C(c1ccc(F)cc1)N(Cc1ccccc1)C(=O)CN1C(=O)c2ccccc2S1(=O)=O` (stereo not drawn), for which the cell number change was -1.11%.
Consider `CCOC(=O)c1ccc(Oc2nc(N(C)C)nc(N3CCOCC3)n2)cc1`, for which the cell number change was 23.1%. Also, the AC50 under setting [2] was 6.51 µM [rising, single point].
Regarding `CCN(CC(=O)Nc1c(F)cccc1F)C(=O)CSc1nc(C)cc(C)n1`, the cell number change amounted to 19.2%. The AC50 under setting [1] was 0.291 µM [rising, full curve, poor fit].
In the case of `COc1ccc(N2C(=O)c3ccccc3NC23CCCC3)cc1`, the cell number change was 8.01%.
In the case of `Cc1cccc(CSc2nnc(-c3ccccn3)n2N)c1`, the cell number change was 0.256%. The AC50 under setting [2] is 2.91 µM [falling, single point].
Turning to `CCOC(=O)N1CCC(N2CCN(c3ccccc3)CC2)CC1`, the cell number change was 30.7%.
Consider `CC(=O)c1cccc(NC(=O)Nc2cccs2)c1`, for which the cell number change amounted to 4.38%. Also, the concentration at half-maximal activity (AC50) under setting [2] is 23.1 µM [rising, single point].
Turning to `CC(C)CC(=O)NCCCCc1ccccc1`, the cell number change is -6.31%. Under setting [1], the AC50 was 0.517 µM [falling, full curve, poor fit]. Also, the AC50 under setting [2] was 1.3 µM [falling, partial curve].
On to `O=C1CCC2S/C(=C/Nc3ccc(C(F)(F)F)cc3)C(=O)N12` (stereo not drawn), for which the cell number change amounted to 8.82%. Moreover, under setting [1], the AC50 is 1.64 µM [falling, partial curve].
Regarding `C=C[C@@H]1c2ccccc2N(S(=O)(=O)c2ccc(C)cc2)[C@H](c2ccc(C(F)(F)F)cc2)C1(C#N)C#N`, the cell number change was -1.47%. The concentration at half-maximal activity (AC50) under setting [2] was 2.06 µM [falling, partial curve].
With `CC(C(=O)Nc1ccc(C#N)cc1)N1CCN(C(=O)C2CC2)CC1` (stereo not drawn), the cell number change is -20.6%.
On to `Cc1cc(C)c2nc(C(F)(F)F)nc(NCCCN3CCCC3=O)c2c1`, for which the cell number change came out at 154%. Besides, the AC50 under setting [1] was 1.84 µM [rising, full curve]. The AC50 under setting [2] is 1.84 µM [rising, full curve].
As to `O=C(c1ccc(NC2=NC3CS(=O)(=O)CC3S2)cc1)N(CCO)Cc1ccccc1` (stereo not drawn), the cell number change is -16.5%. The AC50 under setting [2] is 29.1 µM [rising, single point].
For `C#CC(CC)(CC)NC(=O)c1cc(S(=O)(=O)N2CCCCC2)ccc1N1CCOCC1`, the half-maximal activity concentration (AC50) under setting [2] is 0.116 µM [rising, full curve, poor fit].
In the case of `CSc1ccc(CCCCCCOC(=O)C(C)(C)C)cc1`, the cell number change was -41.8%. For the same compound, the half-maximal activity concentration (AC50) under setting [1] was 0.13 µM [falling, full curve]. Moreover, the AC50 under setting [2] was 10.3 µM [falling, partial curve].
Consider `Cc1nnc(N2C(=O)C(=O)/C(=C(/O)c3ccc4c(c3)OCCO4)C2c2ccc([N+](=O)[O-])cc2)s1` (stereo not drawn), for which the cell number change was -20.4%.
On to `Cc1ccc(OCC(=O)Nc2ccc(NC(=O)c3ccco3)cc2)c(C)c1`, for which the cell number change turned out to be 28.6%. Moreover, under setting [2], the AC50 was 3.26 µM [falling, full curve].
